In the M2OR odorant receptor database:
Changes are numbered by the printed parent chain. The entries are a selection whose mix differs from that of the whole data set. Calls are pooled over several reports, among them a noisy single-well screen. The list shows a part of the results.

Chains of the proteins cited; added tags and fusions are not shown. Chains listed by the source or under a name are the forms on record and can include a tag or linker.
OR8B3, as listed by the source: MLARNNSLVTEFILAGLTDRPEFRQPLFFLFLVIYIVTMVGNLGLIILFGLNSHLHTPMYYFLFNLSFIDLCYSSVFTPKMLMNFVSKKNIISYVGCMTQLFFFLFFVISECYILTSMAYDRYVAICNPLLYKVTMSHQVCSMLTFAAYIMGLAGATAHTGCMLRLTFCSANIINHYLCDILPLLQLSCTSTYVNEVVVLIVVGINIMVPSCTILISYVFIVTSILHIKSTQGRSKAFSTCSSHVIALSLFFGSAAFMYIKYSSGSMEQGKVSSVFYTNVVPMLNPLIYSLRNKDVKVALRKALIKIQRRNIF
OR8B4, as listed by the source: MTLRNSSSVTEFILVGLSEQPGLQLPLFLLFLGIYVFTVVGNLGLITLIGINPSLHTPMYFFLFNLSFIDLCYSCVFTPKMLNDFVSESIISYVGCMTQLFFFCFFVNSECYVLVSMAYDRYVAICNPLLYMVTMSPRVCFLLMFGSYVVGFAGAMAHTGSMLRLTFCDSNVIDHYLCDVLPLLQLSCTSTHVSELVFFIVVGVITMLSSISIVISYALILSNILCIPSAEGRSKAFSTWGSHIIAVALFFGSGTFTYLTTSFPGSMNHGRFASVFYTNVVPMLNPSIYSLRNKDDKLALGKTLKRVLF

Key:
Conditions in all cases: stereoisomer not certain
OR8A1 = system: T1, OR8A1
T1 sequence (whole entry): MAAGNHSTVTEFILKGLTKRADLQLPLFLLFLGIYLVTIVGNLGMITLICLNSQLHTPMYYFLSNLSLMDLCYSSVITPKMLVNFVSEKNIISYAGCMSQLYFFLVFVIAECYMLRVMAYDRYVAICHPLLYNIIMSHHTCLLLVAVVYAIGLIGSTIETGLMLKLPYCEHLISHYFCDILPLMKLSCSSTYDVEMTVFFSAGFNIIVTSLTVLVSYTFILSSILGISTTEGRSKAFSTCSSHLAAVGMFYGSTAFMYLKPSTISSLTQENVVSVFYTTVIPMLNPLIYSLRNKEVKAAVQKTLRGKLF
Summary of the method: (§1)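 Each receptor–molecule pair is labelled responsive or non-responsive (inactive) according to whether the original authors judged the measured signal statistically different from baseline. The data were taken from the main text and supplementary material of published papers and checked for typos and inconsistencies. Assay methods differed by source, with transient luciferase assays in mammalian cell lines being common.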

OR8B12 (Homo sapiens) = molecular target: T2, OR8B12 (Homo sapiens) (UniProt Q8NGG6)
T2 sequence (whole entry): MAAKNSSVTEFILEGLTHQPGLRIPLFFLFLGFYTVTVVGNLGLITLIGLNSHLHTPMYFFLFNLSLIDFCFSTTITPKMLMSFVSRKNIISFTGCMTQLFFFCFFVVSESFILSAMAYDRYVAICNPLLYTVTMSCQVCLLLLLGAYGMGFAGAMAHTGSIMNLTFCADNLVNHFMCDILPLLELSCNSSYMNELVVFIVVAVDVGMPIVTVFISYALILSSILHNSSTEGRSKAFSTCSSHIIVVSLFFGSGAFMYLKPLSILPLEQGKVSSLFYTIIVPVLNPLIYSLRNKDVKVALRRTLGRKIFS
Summary of the method: as §1

OR8B2 (Homo sapiens) = molecular target: T3, OR8B2 (Homo sapiens) (UniProt Q96RD0)
T3 sequence (whole entry): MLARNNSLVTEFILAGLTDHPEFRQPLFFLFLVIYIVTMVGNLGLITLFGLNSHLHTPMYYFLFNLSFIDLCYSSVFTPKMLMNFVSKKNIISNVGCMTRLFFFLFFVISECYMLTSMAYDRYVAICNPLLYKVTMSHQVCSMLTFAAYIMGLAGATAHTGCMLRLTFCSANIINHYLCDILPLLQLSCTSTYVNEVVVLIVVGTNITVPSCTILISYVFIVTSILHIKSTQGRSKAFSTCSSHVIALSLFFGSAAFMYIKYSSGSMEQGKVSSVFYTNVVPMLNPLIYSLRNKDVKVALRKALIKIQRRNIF
Summary of the method: as §1

OR8B3 = system: T4, OR8B3
T4 sequence (whole entry): T3 sequence (whole entry) with H20R, T47I, N94Y, R100Q, M114I, T205I, T208M
Summary of the method: as §1

OR8B4 [1] = system: T5, OR8B4
T5 sequence (whole entry): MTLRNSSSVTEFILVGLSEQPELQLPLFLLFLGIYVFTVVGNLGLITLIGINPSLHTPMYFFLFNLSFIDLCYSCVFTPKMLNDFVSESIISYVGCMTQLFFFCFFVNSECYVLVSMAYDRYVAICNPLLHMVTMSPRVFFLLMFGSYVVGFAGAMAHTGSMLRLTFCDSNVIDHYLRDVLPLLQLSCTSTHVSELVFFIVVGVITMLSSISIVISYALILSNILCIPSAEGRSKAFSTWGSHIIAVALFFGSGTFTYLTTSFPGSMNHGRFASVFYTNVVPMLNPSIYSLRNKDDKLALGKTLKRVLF
Summary of the method: as §1

OR8B4 [2] = system: T6, OR8B4; remark: listed apart in the source
T6 sequence (whole entry): T5 sequence (whole entry) with E22G, H131Y, F140C, R178C
Summary of the method: as §1

OR8B8 (Homo sapiens) = molecular target: T7, OR8B8 (Homo sapiens) (UniProt Q15620)
T7 sequence (whole entry): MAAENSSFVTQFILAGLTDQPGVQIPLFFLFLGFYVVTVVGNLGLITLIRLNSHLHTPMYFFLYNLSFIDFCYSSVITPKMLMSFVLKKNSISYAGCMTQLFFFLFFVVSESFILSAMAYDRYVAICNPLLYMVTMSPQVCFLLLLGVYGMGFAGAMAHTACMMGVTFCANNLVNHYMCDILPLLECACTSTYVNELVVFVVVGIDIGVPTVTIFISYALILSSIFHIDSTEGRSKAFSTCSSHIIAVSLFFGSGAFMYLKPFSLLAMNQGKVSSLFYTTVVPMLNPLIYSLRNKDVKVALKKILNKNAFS
Summary of the method: as §1

OR8B8 = system: T8, OR8B8
T8 sequence (whole entry): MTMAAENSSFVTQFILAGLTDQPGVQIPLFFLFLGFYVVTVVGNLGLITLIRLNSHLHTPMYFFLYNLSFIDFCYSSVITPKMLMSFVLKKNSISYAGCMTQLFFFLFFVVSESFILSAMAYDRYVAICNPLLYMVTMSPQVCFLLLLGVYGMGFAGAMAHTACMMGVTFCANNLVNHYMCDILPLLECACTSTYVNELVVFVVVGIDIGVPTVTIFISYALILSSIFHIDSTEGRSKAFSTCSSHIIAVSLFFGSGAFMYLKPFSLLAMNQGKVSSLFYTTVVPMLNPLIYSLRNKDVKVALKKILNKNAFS
Summary of the method: as §1

OR8D1 (Homo sapiens) = molecular target: T9, OR8D1 (Homo sapiens) (UniProt Q8WZ84)
T9 sequence (whole entry): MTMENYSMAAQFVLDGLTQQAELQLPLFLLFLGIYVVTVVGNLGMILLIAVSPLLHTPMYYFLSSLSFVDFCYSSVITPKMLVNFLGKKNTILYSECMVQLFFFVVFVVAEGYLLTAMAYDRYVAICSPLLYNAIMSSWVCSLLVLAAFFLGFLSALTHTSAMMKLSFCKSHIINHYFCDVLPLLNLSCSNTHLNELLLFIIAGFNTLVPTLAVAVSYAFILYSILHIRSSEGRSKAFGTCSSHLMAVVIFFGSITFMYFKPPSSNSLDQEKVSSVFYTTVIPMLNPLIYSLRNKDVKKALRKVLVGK
Summary of the method: as §1

OR8D2 (Homo sapiens) = molecular target: T10, OR8D2 (Homo sapiens) (UniProt Q9GZM6)
T10 sequence (whole entry): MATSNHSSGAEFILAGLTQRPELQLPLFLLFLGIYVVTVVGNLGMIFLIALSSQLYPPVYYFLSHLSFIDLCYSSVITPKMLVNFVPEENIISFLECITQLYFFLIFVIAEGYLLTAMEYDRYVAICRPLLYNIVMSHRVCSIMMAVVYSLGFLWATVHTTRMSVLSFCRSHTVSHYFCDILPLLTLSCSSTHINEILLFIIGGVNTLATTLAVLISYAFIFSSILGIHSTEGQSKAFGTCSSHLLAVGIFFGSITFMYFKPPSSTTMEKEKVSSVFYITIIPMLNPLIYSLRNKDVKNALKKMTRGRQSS
Summary of the method: as §1

OR8D4 = system: T11, OR8D4
T11 sequence (whole entry): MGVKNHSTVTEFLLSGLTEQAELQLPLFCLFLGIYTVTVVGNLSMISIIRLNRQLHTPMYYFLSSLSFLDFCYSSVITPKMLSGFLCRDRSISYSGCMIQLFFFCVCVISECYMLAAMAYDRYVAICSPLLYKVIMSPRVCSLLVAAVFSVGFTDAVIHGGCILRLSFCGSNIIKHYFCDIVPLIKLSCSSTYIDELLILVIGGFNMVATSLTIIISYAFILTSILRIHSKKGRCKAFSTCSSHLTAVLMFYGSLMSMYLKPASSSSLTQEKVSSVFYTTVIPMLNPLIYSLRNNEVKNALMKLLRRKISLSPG
Summary of the method: as §1

OR8G1 (Homo sapiens) = molecular target: T12, OR8G1 (Homo sapiens) (UniProt Q15617)
T12 sequence (whole entry): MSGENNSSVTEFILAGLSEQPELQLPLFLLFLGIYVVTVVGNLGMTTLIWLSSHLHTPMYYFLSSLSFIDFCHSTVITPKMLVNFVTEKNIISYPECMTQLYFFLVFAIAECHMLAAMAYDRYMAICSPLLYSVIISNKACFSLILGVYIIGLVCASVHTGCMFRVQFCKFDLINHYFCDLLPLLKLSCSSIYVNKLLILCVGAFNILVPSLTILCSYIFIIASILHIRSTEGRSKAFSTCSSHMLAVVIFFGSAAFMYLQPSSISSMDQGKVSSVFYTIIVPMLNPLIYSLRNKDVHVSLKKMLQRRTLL
Summary of the method: as §1

OR8G5 (Homo sapiens) = molecular target: T13, OR8G5 (Homo sapiens) (UniProt Q8NG78)
T13 sequence (whole entry): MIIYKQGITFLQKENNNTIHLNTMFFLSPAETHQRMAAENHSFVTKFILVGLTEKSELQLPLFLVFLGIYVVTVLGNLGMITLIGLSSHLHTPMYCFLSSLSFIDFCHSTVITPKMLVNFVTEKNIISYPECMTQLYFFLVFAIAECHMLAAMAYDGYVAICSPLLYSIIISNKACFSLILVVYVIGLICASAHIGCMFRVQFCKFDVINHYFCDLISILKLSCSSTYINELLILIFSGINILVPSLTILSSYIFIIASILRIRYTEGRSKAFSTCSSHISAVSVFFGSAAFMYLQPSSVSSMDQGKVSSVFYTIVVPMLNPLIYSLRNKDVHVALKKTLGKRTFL
Summary of the method: as §1

OR8G5 = system: T14, OR8G5
T14 sequence (whole entry): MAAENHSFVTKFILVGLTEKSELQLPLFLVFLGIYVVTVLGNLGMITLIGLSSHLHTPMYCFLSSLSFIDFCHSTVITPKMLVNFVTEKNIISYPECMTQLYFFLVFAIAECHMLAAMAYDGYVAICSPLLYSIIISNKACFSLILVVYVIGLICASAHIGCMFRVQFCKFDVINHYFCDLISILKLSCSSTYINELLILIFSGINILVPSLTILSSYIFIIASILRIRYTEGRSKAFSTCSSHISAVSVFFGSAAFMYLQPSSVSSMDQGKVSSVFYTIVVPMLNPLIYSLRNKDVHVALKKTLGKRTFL
Summary of the method: as §1

OR8H1 (Homo sapiens) = molecular target: T15, OR8H1 (Homo sapiens) (UniProt Q8NGG4)
T15 sequence (whole entry): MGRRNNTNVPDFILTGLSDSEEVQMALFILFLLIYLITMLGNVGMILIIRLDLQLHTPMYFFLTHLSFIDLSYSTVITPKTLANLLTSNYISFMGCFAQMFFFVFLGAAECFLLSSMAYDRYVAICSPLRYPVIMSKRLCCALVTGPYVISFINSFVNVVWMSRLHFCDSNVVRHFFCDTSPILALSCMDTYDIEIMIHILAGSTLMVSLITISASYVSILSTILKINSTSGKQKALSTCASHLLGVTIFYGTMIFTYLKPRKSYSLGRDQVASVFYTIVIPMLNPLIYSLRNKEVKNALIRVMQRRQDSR
Summary of the method: as §1

OR8H2 = system: T16, OR8H2
T16 sequence (whole entry): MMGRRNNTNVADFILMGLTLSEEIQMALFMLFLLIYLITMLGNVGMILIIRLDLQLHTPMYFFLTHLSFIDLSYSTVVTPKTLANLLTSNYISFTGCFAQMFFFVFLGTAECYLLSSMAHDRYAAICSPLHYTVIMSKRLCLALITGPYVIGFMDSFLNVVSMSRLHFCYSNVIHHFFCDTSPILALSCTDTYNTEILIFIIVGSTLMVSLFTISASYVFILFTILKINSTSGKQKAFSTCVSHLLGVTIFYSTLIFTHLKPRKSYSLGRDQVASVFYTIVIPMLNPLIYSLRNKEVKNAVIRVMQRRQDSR
Summary of the method: as §1

Measured: odorant receptor agonist call

COc1cc(C)ccc1O
inactive: all assays above

COC(=O)c1ccccc1O
inactive: all assays above

CC(=O)C(C)=O
inactive: all assays above

CC1=CCC(C(C)(C)O)CC1 (configuration not stated)
active: OR8B2 (Homo sapiens)
inactive: all other assays above

CCCCCCCOC(C)=O
inactive: all assays above

CCCCCCCCCC=O
inactive: all assays above

CCCC(=O)O
inactive: all assays above

c1cnccn1
inactive: all assays above

CCCCCCOC(=O)CCC
active: OR8H2
inactive: all other assays above

CC(C)CC(=O)O
active: OR8B12 (Homo sapiens)
inactive: all other assays above

CCCCO
inactive: all assays above

3 entries already listed, ordered by formula weight, smallest number first:
c1cnccn1
inactive: all assays above

CC(C)CC(=O)O
active: OR8B12 (Homo sapiens)
inactive: all other assays above

COc1cc(C)ccc1O
inactive: all assays above

Additional records follow:

CC12CCC(CC1)C(C)(C)O2
inactive: all assays above
